The source of these data is PMC6483171.

Series [1] concerns GST-Com (zinc finger protein Com) (Haemophilus sputorum Mu-like prophage). Description: EMSA. The settings on record: EMSA: 50 mM Tris pH 7, 50 mM NaCl, 2.5 mM MgCl2, 20 uM ZnSO4, 1 mM DTT, 10% glycerol, 0.1% Igepal, 1 ug BSA, 2 ug dI-dC, ~4 pmol RNA, 1 h room temperature, recombinant protein, protein details: N-terminal GST, S-H linker, label: 5' 32P/33P (EMSA). Background: A gel shift assay detects complexes by their altered migration in electrophoresis.

Series [2] has the same test system. Description: SHAPE footprinting. The following applies: UV 254 nm crosslinked, 125:1 protein:RNA, recombinant protein, protein details: N-terminal GST, S-H linker, label: 5' 32P/33P (EMSA).
Setting [3] is: 0-2000 nM Com, 2.5 mM Mg2+, 20 uM Zn2+.

Construct, isoform or probe ends are uncertain for at least one entry. For some of these results: Weaker means in comparison with the reference protein, sequence or condition of that experiment.

Regarding “AGAGAACCCGGAGUUCCCU / AGAGAACCCGGAGUUCCCU [RNA II (self-complementary duplex)]”, the binding result in series [1] (0-2000 nM Com, duplex bound only after all hairpin molecules were bound) is listed as “binds more weakly”; in series [2] (both GA protected) it was “binds”.

Take “AGAGAACCCGGAGUUCCCU [RNA II (monomeric hairpin form)]”: the binding result in series [1] (0-2000 nM Com, hairpin form bound before duplex) is recorded as “binds”.

CGAGAACCAGAGAGUUCCGG [RNA I]: the binding result in series [1] (setting [3]) and in series [2] (both GA protected) was “binds” each time.

CGCGUACAAGUGAGUACCGG [RNA IB]: the binding result in series [1] (2000 nM Com, 'very little binding', later called lack of binding) is “binds more weakly”.

Consider CUGCAACCAGAGAGUUGCGG [RNA IA], for which the binding result is on record as “binds more weakly” in series [1] (2000 nM Com, less efficient than RNA I) and “binds” in series [2] (GA protected).

Consider GAAUGCCUGCGAGCAUCCC [19-mer Mom RNA], for which the binding result in series [1] (setting [3]) and in series [2] (both GA protected) was “binds” in each case.
